Measured values from PubChem BioAssay AID687031 (Broad Institute, 2013).
The campaign covered roughly 1,400 compounds. About 50 (4%) were called active.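 Rule for the calls: active = fitted curve reaches 30% CPE protection at or below the top valid dose, with every test run called active; inconclusive = test runs disagree, some active and some not; inactive = every test run inactive, including effects in the wrong direction.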 The list shows a part of the results. Results with a measured potency or affinity are listed apart.

assay: antiviral rescue of DENV2-infected BHK-21 cells – cell-based, ATP luminescence, cherry-pick, dose response (AID 687031); details: BHK-21 DENV2 CPE protection, 5 d; at 19.5 µM (top of the series) unless noted;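 note: 0% = infected DMSO wells and 100% = uninfected cell wells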

CPE protection (higher = active), inactive:
O=C(NCC1CC1)c1onc(CSc2ccc(F)c(F)c2)c1C(=O)NCC1CC1 10.7%
CCc1ccc(NC(=O)C(C)OC(=O)Cn2[nH]c(=O)c3ccccc3c2=O)cc1 (stereo not drawn) 28.8%
CCCNC(=O)N1CC2(C1)CN(Cc1cccc(F)c1)[C@@H](CO)c1[nH]c3cc(OC)ccc3c12 0.396%
C[C@H](NC(=O)[C@H]1[C@H](CO)[C@H]2Cn3c(cccc3=O)[C@@H]1N2Cc1cccnc1)c1ccccc1 2.21% [at 21 µM]
CCCCCCCNC(=O)C1(CC2CC(c3ccccc3)=NO2)CCN(C(=O)c2ccccc2)CC1 (stereo not drawn) -3.88% [at 10 µM]
CCCCN1C(Nc2ccccc2)=NC[C@@H]1Cc1ccccc1 9.41%
CCCN1C[C@H](C)[C@H](OC)CN(C)C(=O)c2cc(NS(=O)(=O)c3cn(C)cn3)ccc2OC[C@@H]1C -5.04%
CC(C)C[C@@H](COc1ccccc1)N1CCN(CCc2ccccc2)CCC1=O 24.5%
COc1cccc(CNC(=O)[C@H]2CCCN2C(=O)C2CCCN2C(=O)c2ccc(OC)c(F)c2)c1 (stereo partly drawn) -11.5%
CCN(CC)c1ccc(/C=N/N2C(=O)c3ccccc3C2=O)c(O)c1 -7.63%
CCC(=O)Nc1ccc2c(c1)C(=O)N(C)[C@@H]1CC[C@H](CC(=O)N[C@@H](C)c3ccccc3)O[C@@H]1CO2 30.3%
CCc1nc2nc(C)c(NS(=O)(=O)c3ccc(Br)s3)c(=O)n2[nH]1 -4.69%
O=C(COc1ccccc1)Nc1ccc(N2CCN(C(=O)c3cccs3)CC2)cc1 6.36%
C[C@H](CO)N1C[C@H](C)[C@@H](CN(C)C(=O)Nc2ccc(C(F)(F)F)cc2)OCCCC[C@H](C)Oc2ccc(NS(=O)(=O)c3cccs3)cc2C1=O 3.94%
Cc1ccc(C)c(C(Nc2ccccc2)c2ccc3ccc(C)nc3c2O)c1 (stereo not drawn) -13.2%
O=C(NCCS(=O)(=O)NCc1ccc(F)cc1)c1ccc2c(c1)OCO2 0.287%
CN1C(C)(C)c2ccccc2OS1(=O)=O 22%
Cc1cc2oc(=O)cc(Cn3ccnc3)c2cc1Cl 7.63%
O=S1(=O)CCOCCCN1Cc1ccccc1Br 12.2%
O=C(c1cnccn1)N1CC[C@@H]2[C@@H](CO)Nc3ccc(-c4ccccc4F)cc3[C@@H]21 -9.44% [at 21 µM]
CSc1ccccc1NC(=O)c1cc2c(=O)n3ccccc3nc2s1 -13.1%
Cc1ccc([C@H]2C[C@@H](n3cc(-c4ccc(F)cc4)nn3)[C@H](O)CN2C(=O)c2cccs2)cc1 -9.7%
CCN(c1ccccc1)S(=O)(=O)c1ccc(OC)c(NC(=O)C2CCC2)c1 -14.6%
COc1ccc(NC(=O)Nc2cccc3c2O[C@H](CN(C)C(=O)Nc2ccc(OC)cc2)[C@@H](C)CN([C@@H](C)CO)C3=O)cc1 -19.9%
COc1cc(S(=O)(=O)NCc2ccncc2)c(OC)cc1Br -11.7%
CCN1CCC(N2CCN(c3ccc(F)cc3)CC2)CC1 16.7%
C[C@@H]1CCCCO[C@@H](CN(C)S(C)(=O)=O)[C@@H](C)CN([C@H](C)CO)C(=O)c2cc(NC(=O)c3ccccc3)ccc2O1 2.99%
CN(C(=O)COC(=O)c1ccc(S(=O)(=O)N2CCOCC2)cc1)c1ccccc1 11.8%
CCc1ccc(NC(=O)COc2ccc3c(c2)OCO3)cc1 35%
Cc1ccccc1-c1ccc(C2[C@@H]3CN(C(=O)Cc4ccncc4)C[C@H]2N3)cc1 (stereo partly drawn) -5.08% [at 21 µM]
CC1CCOC(c2coc3ccccc3c2=O)O1 (stereo not drawn) 9.34%
O=C(NC1CCCC1)C(C1CC1)n1c(C2CCCC2)nc2ccccc21 (stereo not drawn) -5.67%
Cc1cn([C@H]2C[C@H](O)[C@@H](CNCc3ccc4ncccc4c3)O2)c(=O)[nH]c1=O 0.612%
Cc1ccccc1OCCC(=O)OCC(=O)NCCc1ccc(S(N)(=O)=O)cc1 2.61%
CCN1CCN(S(=O)(=O)c2ccc(Cl)c(C(=O)N(C)CCOc3ccc(Cl)cc3)c2)CC1 -11.8%
Cc1ccc(S(=O)(=O)N(C)CC(=O)Oc2ccc(-c3nnco3)cc2)cc1 -21.8% [at 10 µM]
Cc1cc(C)c2[nH]c(C(=O)Nc3ccc4c(c3)OCO4)cc2c1 3.28%
COc1ccc(C(=S)N2CCOCC2)cc1OC(=O)c1ccccc1 3.84%
C[C@H](CO)N1C[C@H](C)[C@@H](CN(C)C(=O)C2CC2)Oc2cc(C#Cc3ccccc3)ccc2S1(=O)=O -7.48%
O=C(Cc1cccc(C(F)(F)F)c1)Nc1ccc(S(=O)(=O)N2CCCC2)cc1 -1.95%
O=C(Cc1cccnc1)N[C@H]1CC[C@@H](CCn2cc(Cc3ccccc3)nn2)O[C@H]1CO -2.15%
C[C@H](CO)N1C[C@H](C)[C@@H](CN(C)S(=O)(=O)c2cn(C)cn2)Oc2ccc(NC(=O)Nc3cccc4ccccc34)cc2CC1=O -3.17% [at 21 µM]
C[C@@H]1CN([C@H](C)CO)C(=O)c2cc(NC(=O)Nc3ccc(C(F)(F)F)cc3)ccc2O[C@@H]1CN(C)Cc1ccccc1 -0.123%
Cc1ccc(CNC(=O)[C@H](C)N2C(=O)N3CCc4c([nH]c5ccccc45)[C@@]3(C)C2=O)cc1 2.38%
COc1ccccc1CN1[C@H](CO)[C@H]2c3ccccc3N(C(=O)c3ccncc3)C[C@H]21 1.87% [at 21 µM]
C[C@H]1CN([C@@H](C)CO)C(=O)c2ccccc2-c2ccccc2CO[C@H]1CN(C)S(=O)(=O)c1cccc(C#N)c1 0.282%
Nc1nc2c(ncn2[C@@H]2O[C@H](CNCc3ccc(F)c(N4CCOCC4)c3)[C@@H](O)[C@H]2O)c(=O)[nH]1 -16%
Nc1cccc(O)c1 19.3% [at 10 µM]

By substructure: those above with an aryl thioether with sulfur outside any ring.
CPE protection (higher = active), inactive:
O=C(NCC1CC1)c1onc(CSc2ccc(F)c(F)c2)c1C(=O)NCC1CC1 10.7%
CSc1ccccc1NC(=O)c1cc2c(=O)n3ccccc3nc2s1 -13.1%
